Experimental data: PubChem BioAssay AID1259254 (NCATS, 2017)
Test: 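Genome-wide screen for genes that prevent DNA re-replication in cancer cells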 (primary screen). Cell system: human HCT116 colorectal cancer cells. Knock-down reagent: single siRNA against human genes. Time to read-out: 3 days. Detection: 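Imaged Hoechst DNA stain sorts each cell into a cycle phase by DNA amount; per plate, G2 fraction set to 0% for non-targeting and 100% for GMNN siRNA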. Scale: G2 robust z-score: higher = more G2 cells, more excess DNA replication. Rule for the call: 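Active siRNAs have a G2 robust z of 5 or more median absolute deviations over the median, which in these data means about 38% or higher of GMNN control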.
Shown is one part, drawn at random, of about 59,000 reagents tested. Of all reagents, about 1,550 (2.6%) got an active call. 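G2 share is only a proxy for re-replication; each gene was hit by three separate siRNAs, and active genes were retested.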 A number with no mark means an inactive call. The numbers tell different reagents against one gene apart. Further read-outs or replicates are left out here. No sequences are given here. Not stated in the record: the amount of reagent.

target,reagent,G2 robust z-score
SYMPK,1,-1.14
SYMPK,2,0.754
SYMPK,3,2.78
GLT6D1,1,-0.661
GLT6D1,2,2.1
GLT6D1,3,-0.0691
NAT16,1,-0.0948
NAT16,2,-0.557
NAT16,3,-0.279
LOC729887 (retired record),1,-0.345
LOC729887 (retired record),2,-0.407
LOC729887 (retired record),3,-0.167
OLFML3,1,1.65
OLFML3,2,-0.47
OLFML3,3,0.98
CDC42SE1,1,-0.25
CDC42SE1,2,-0.122
CDC42SE1,3,-0.453
PAPLN,1,2.63
PAPLN,2,0.0467
PAPLN,3,0.132
CFDP1,1,-0.663
CFDP1,2,-0.583
CFDP1,3,1.78
CSTA,1,0.83
CSTA,2,1.34
CSTA,3,0.221
ASXL3,1,-0.477
ASXL3,2,-0.732
ASXL3,3,-1.11

A portion of the results above, for reference:
target,reagent,G2 robust z-score
GLT6D1,2,2.1
GLT6D1,3,-0.0691
NAT16,1,-0.0948
NAT16,2,-0.557
